{"source": "PubChem BioAssay AID1053208 (Peter MacCallum Cancer Centre, 2014)", "assay": "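Synthetic lethal interactions between gene loss and doxorubicin in osteosarcoma cells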 (primary screen)", "cells": "mouse osteosarcoma cells, early-passage culture from an engineered mouse model of fibroblastic bone tumour", "reagent": "siRNA pool against mouse genes, 40 nM", "timing": "about 120 h (48 h before drug, then 72 h with drug)", "treatment": "doxorubicin 100 nM for 72 h, roughly 30-40% inhibitory dose", "detection": "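Luminescent ATP signal taken as viability with or without 100 nM doxorubicin for 72 h; mean of two wells set against non-targeting siRNA and turned into robust z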", "direction": "viability z-score with doxorubicin: higher = more viable cells under doxorubicin; viability z-score without drug: higher = more viable cells with knock-down alone", "call rule": "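a pool counts as active when its viability z-score with doxorubicin is -2 or below and its z-score without drug lies between -2 and 2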", "note": "In all, the deposit lists about 17,000 reagents; this is a random part of them. In the full data, 788 (4.7%) are marked active. 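Calls rest on z-score classes alone; an extra cut-off of viability at most 70% of control was not applied to them.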 Entries without a mark were called inactive. The numbers tell different reagents against one gene apart. A reagent listed more than once was tested more than once; the source does not tell the runs apart. Further read-outs or replicates are left out here."}
The opening 4 records, ahead of the listing:
{"target":"Cd68 (GeneID 12514)","reagent no.":1,"combined z-score class":"no change with or without drug","viability z-score with doxorubicin":0.22,"viability z-score without drug":-0.51}
{"target":"Gpr6 (GeneID 140741)","reagent no.":1,"combined z-score class":"no change with or without drug","viability z-score with doxorubicin":0.34,"viability z-score without drug":-0.51}
{"target":"Vasn (GeneID 246154)","reagent no.":1,"combined z-score class":"no change with or without drug","viability z-score with doxorubicin":0.45,"viability z-score without drug":1.18}
{"target":"4932435O22Rik (GeneID 319819)","reagent no.":1,"combined z-score class":"no change with or without drug","viability z-score with doxorubicin":1.35,"viability z-score without drug":-1.52}

Main list, from the start:
{"target":"Cd68 (GeneID 12514)","reagent no.":1,"combined z-score class":"no change with or without drug","viability z-score with doxorubicin":0.22,"viability z-score without drug":-0.51}
{"target":"Gpr6 (GeneID 140741)","reagent no.":1,"combined z-score class":"no change with or without drug","viability z-score with doxorubicin":0.34,"viability z-score without drug":-0.51}
{"target":"Vasn (GeneID 246154)","reagent no.":1,"combined z-score class":"no change with or without drug","viability z-score with doxorubicin":0.45,"viability z-score without drug":1.18}
{"target":"4932435O22Rik (GeneID 319819)","reagent no.":1,"combined z-score class":"no change with or without drug","viability z-score with doxorubicin":1.35,"viability z-score without drug":-1.52}
{"target":"Sln (GeneID 66402)","reagent no.":1,"combined z-score class":"low cell count with doxorubicin only (active)","viability z-score with doxorubicin":-2.7,"viability z-score without drug":-1.18}
{"target":"Hbq1a (GeneID 216635)","reagent no.":1,"combined z-score class":"no change with or without drug","viability z-score with doxorubicin":0.79,"viability z-score without drug":-0.51}
{"target":"Erlec1 (GeneID 66753)","reagent no.":1,"combined z-score class":"high cell count without drug only","viability z-score with doxorubicin":-1.69,"viability z-score without drug":2.53}
{"target":"P4ha3 (GeneID 320452)","reagent no.":1,"combined z-score class":"no change with or without drug","viability z-score with doxorubicin":0.34,"viability z-score without drug":0}
{"target":"Gabrb1 (GeneID 14400)","reagent no.":1,"combined z-score class":"high cell count with doxorubicin only","viability z-score with doxorubicin":2.47,"viability z-score without drug":0.67}
{"target":"Stx8 (GeneID 55943)","reagent no.":1,"combined z-score class":"no change with or without drug","viability z-score with doxorubicin":1.01,"viability z-score without drug":-0.17}
{"target":"Kif9 (GeneID 16578)","reagent no.":1,"combined z-score class":"no change with or without drug","viability z-score with doxorubicin":0,"viability z-score without drug":-0.17}
{"target":"Mrgprx1 (GeneID 404242)","reagent no.":1,"combined z-score class":"no change with or without drug","viability z-score with doxorubicin":-0.34,"viability z-score without drug":-0.17}
{"target":"Mrgprx1 (GeneID 404242)","reagent no.":1,"combined z-score class":"no change with or without drug","viability z-score with doxorubicin":-0.56,"viability z-score without drug":-0.84}
{"target":"Or6c8 (GeneID 258315)","reagent no.":1,"combined z-score class":"no change with or without drug","viability z-score with doxorubicin":0.22,"viability z-score without drug":1.01}
{"target":"Or6c8 (GeneID 258315)","reagent no.":2,"combined z-score class":"high cell count without drug only","viability z-score with doxorubicin":0.67,"viability z-score without drug":2.53}
{"target":"Chd1l (GeneID 68058)","reagent no.":1,"combined z-score class":"no change with or without drug","viability z-score with doxorubicin":-1.35,"viability z-score without drug":1.18}
{"target":"Celf4 (GeneID 108013)","reagent no.":1,"combined z-score class":"no change with or without drug","viability z-score with doxorubicin":0.67,"viability z-score without drug":1.52}
{"target":"Or5aq1b (GeneID 258841)","reagent no.":1,"combined z-score class":"no change with or without drug","viability z-score with doxorubicin":0.22,"viability z-score without drug":0.51}
{"target":"Shisa4 (GeneID 77552)","reagent no.":1,"combined z-score class":"no change with or without drug","viability z-score with doxorubicin":-1.8,"viability z-score without drug":-0.84}
{"target":"Bicd1 (GeneID 12121)","reagent no.":1,"combined z-score class":"no change with or without drug","viability z-score with doxorubicin":1.12,"viability z-score without drug":1.18}
{"target":"Omp (GeneID 18378)","reagent no.":1,"combined z-score class":"no change with or without drug","viability z-score with doxorubicin":-1.8,"viability z-score without drug":-0.84}
{"target":"Pfkfb2 (GeneID 18640)","reagent no.":1,"combined z-score class":"no change with or without drug","viability z-score with doxorubicin":-0.9,"viability z-score without drug":-0.51}
{"target":"Pfn3 (GeneID 75477)","reagent no.":1,"combined z-score class":"low cell count with and without drug","viability z-score with doxorubicin":-2.7,"viability z-score without drug":-2.19}
{"target":"Cyp1a1 (GeneID 13076)","reagent no.":1,"combined z-score class":"no change with or without drug","viability z-score with doxorubicin":0.22,"viability z-score without drug":0.51}
{"target":"Ssr3 (GeneID 67437)","reagent no.":1,"combined z-score class":"no change with or without drug","viability z-score with doxorubicin":-0.22,"viability z-score without drug":-1.01}
{"target":"Ric8a (GeneID 101489)","reagent no.":1,"combined z-score class":"no change with or without drug","viability z-score with doxorubicin":-0.22,"viability z-score without drug":0}
{"target":"Pou3f4 (GeneID 18994)","reagent no.":1,"combined z-score class":"high cell count without drug only","viability z-score with doxorubicin":1.8,"viability z-score without drug":2.36}
{"target":"Dnase2b (GeneID 56629)","reagent no.":1,"combined z-score class":"no change with or without drug","viability z-score with doxorubicin":-0.22,"viability z-score without drug":0.51}
{"target":"Eif3b (GeneID 27979)","reagent no.":1,"combined z-score class":"low cell count with and without drug","viability z-score with doxorubicin":-5.17,"viability z-score without drug":-3.2}
{"target":"Cryba4 (GeneID 12959)","reagent no.":1,"combined z-score class":"no change with or without drug","viability z-score with doxorubicin":-1.57,"viability z-score without drug":-0.84}
{"target":"Or8s10 (GeneID 258449)","reagent no.":1,"combined z-score class":"no change with or without drug","viability z-score with doxorubicin":0.22,"viability z-score without drug":-1.18}
{"target":"Hic1 (GeneID 15248)","reagent no.":1,"combined z-score class":"no change with or without drug","viability z-score with doxorubicin":0.67,"viability z-score without drug":0.17}
{"target":"Vmn1r22 (GeneID 171196)","reagent no.":1,"combined z-score class":"no change with or without drug","viability z-score with doxorubicin":0.22,"viability z-score without drug":0}
{"target":"Tmem150c (GeneID 231503)","reagent no.":1,"combined z-score class":"no change with or without drug","viability z-score with doxorubicin":0.34,"viability z-score without drug":1.52}
{"target":"Rab3gap1 (GeneID 226407)","reagent no.":1,"combined z-score class":"high cell count with doxorubicin only","viability z-score with doxorubicin":2.59,"viability z-score without drug":1.69}
{"target":"Ptprs (GeneID 19280)","reagent no.":1,"combined z-score class":"no change with or without drug","viability z-score with doxorubicin":-0.45,"viability z-score without drug":-1.52}
